In patent EP4644419A1:
Substitutions are numbered along the chain they refer to. Results are given in words; binding and its absence hold for the method and conditions named. Binding calls can cover weak binding; strength is not graded here.

Sequences of proteins named here, by UniProt entry; tags and fusion partners are left off. A change or cut given only in a name is not applied to a line headed by its entry.
UniProt Q6DKI7: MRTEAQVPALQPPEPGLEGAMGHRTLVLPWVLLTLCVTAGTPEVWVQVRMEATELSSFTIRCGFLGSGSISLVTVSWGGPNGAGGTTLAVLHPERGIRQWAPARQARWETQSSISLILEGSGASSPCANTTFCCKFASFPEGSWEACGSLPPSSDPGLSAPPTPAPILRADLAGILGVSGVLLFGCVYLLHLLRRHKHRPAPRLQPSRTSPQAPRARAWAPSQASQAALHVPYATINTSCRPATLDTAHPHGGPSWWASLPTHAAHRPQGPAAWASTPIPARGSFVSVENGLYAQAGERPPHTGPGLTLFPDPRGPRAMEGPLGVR

B1: C45 (antibody, human IgG1, kappa, V domains shown)
VH: QVHLQQSGPDLVKPGVSVKISCKASGYTFTDYYINWVKQRPGQGLEWIGWIFPGSGTTYYNEKFKGKATLTVDKSSSTAYMLLSSLTSEDSAVYFCARDGGLRGPFDYWGQGTTLTVSS
VL: DIQMTQSPSSLSASLGGKVTITCKANQDINKYIAWYQYKPGKGPRLLIHYTSTLQPDIPSRFSGSGSGRDFSFSISNLEPEDIATYYCLQYDYLYTFGGGTKLEIKR
B2: C51 (antibody, human IgG1, kappa, V domains shown)
VH: QVQLQQSGAELVRPGASVTLSCKASGYTFTDYEMHWVKQTPVHGLEWIGAIDPETGGTAYNQKFKGKAILTADKSSSTAYMELRSLTSEDSAVYYCTRWITTVVATLYYFDYWGQGTTLTVSS
VL: DIVMTQSQKFMSTSVGDRVSITCKASQNVRTAVAWYQQKPGQSPKALIYLASNRHTGVPDRFTGSGSGTDFTLTISNVQSEDLADYFCLQHWNYPLTFGAGTKLELKR
B3: C55 (antibody, human IgG1, kappa, V domains shown)
VH: EVQLQQSGPELVKPGASVKISCKASGYTFTDYYMSWVKQSHGKSLEWIGDVNPNNGDTSYNQKFKGKATLTVDKSSSTAYMELRSLTSEDSAVYYCAASGLPYVLMDYWGQGTSVTVSS
VL: DIQMTQSPASLSASVGETVTITCRASENINSYLAWYQQKQGKSPQLLVYNTKTLTEDVPSRFSGSGSGTQFSLKINSLQPEDFGSYYCQHHYGTPLTFGGGTKLELKR
B4: C57 (antibody, human IgG1, kappa, V domains shown)
VH: EVQLQQSGPVLVKPGASVKMSCKASGYIFTDYYMHWVKQSHGKSLEWIGIINPYNGDTSYNQKFKDKATLTVDKSSSTAYMELNSLTSEDSAVYYCARDSSNVGNAMDYWGQGTSVTVSS
VL: DIQMTQTTSSLSASLGDRVTISCRASQDISNYLNWYLQKPDGTIKLLIYYSSRLHSGVPSRFSGSGSGTDYSLTISNLEQEDIATYFCQQGYTLPRTFGGGTKLEIIR
B5: C62 (antibody, human IgG1, kappa, V domains shown)
VH: EVMLVESGGGLVKPGGSLKLSCAASGFSFSSYSMSWVRQTPEKRLECVATIGGVGGNTYYPDSVKGRFSISRDNAKNTLYLQMSSLRSEDTALYYCARHEDYYYYAMDYWGQGTSVTVSS
VL: QIVLTQSPAIMSASPGEKVTMTCSANSTVSYIYWYQQKPGSSPRLLIYDTSNLASGVPVRFSGSGSGTSYYLTISRMEAEDAATYYCQQWSSFPFTFGSGTKLEIKR
B6: C63 (antibody, human IgG1, kappa, V domains shown)
VH: EVMLVESGGGLVKPGGSLKLSCAASGFIFSSYIMSWVRQTPEKRLEWVATIRGGGGNTYYLDSVKGRFIISRDNAKNNLYLQMSSLRSEDTALYYCARHEDYEWYAMDNWGQGTSVTVSS
VL: B5 VL with M21L, N26R, T28S, I32M, R44K, Y71S, F93Y, F95L, S99A, I105L
B7: C64 (antibody, human IgG1, kappa, V domains shown)
VH: EVMLVESGGDLVKPGGSLKLSCAASGFTFSSYFMSWVRQTPEKRLEWVATISGGGDKTYYLDILKGRFTISRDNAKNTLYLQMSSLRSEDTALYYCARHEDYAWYAMDYWGQGTSVTVSS
VL: B5 VL with N26S, T28S, S30N, Y71S, F93Y, F95L, S99A, I105L
B8: C67 (antibody, human IgG1, kappa, V domains shown)
VH: EAQLQQSGPELVKPGASVKISCKASGYTFTDYYMNWVKQSHGKSLDWIGDINPDNGGSTYNQKFKGKATLTVDKSSSTAYMELRSLTSEDSAVYYCSASGPPYVLLDYWGQGTSVIVSS
VL: B3 VL with R24Q, A25T, N30Y, K52Q, T55A, D57G, G66R, T69A, T94V, G100A
B9: C56-2 (antibody, human IgG1, kappa, V domains shown)
VH: EVQLVESGGGLVKPGGSLKLSCAASGFTFSDYALSWVRQTPEKRLEWVATIRDGGSYTYYSDNEKGRFTISRDNAKNNLYLQMSHLRSEDTAMYYCTRDQVNRGWFTYWGQGTLVTVSA
VL: QVILTQSPAIMSASLGERVTMTCSASSSVSSSYFHWFQQKPGSSPKLWIYSTSNLASGVPPRFSGSGSGTSYSLTISSMEAEDAATYYCHQHHRSPLTFGAGTKLELKR
B10: C69 (antibody, human IgG1, kappa, V domains shown)
VH: B4 VH with I28R, F29L, D57G, D66G, E89D, A106D, T117S
VL: B4 VL with I44V, S76N, Y92N, I107R
B11: C59 (antibody, human IgG1, kappa, V domains shown)
VH: B9 VH with D31G, R87K
VL: B9 VL
B12: C71 (antibody, human IgG1, kappa, V domains shown)
VH: B7 VH with M3I, D10G, L18R, K57N, L61P, I63S, L64V, A103E
VL: B5 VL with A13T, N26S, T28S, Y71S, S91T, F93Y, F95L, S99A, I105L
B13: C101 (antibody, human IgG1, kappa, V domains shown)
VH: EVQLQQSGPELVKPGSSVKISCEASGFTFADYNVDWVKQSHGKSLEWIGAINPNDGGTSYNQKFEGKATLTVDKSSTTAYMELRSLTSEDSAVYYCARWVNNDWYFDVWGTGTTVTVSS
VL: B2 VL with T31S, A34D, A46T, Y49H, L50S, V78I, L96Y, A100G, L106V
B14: C105 (antibody, human IgG1, kappa, V domains shown)
VH: EVQLQQSGPELVKPGSSMKISCKASGYTFTDYSMDWVKQSHGKSLEWIGAINPNNGGTSYNQKFKDKATLTVDRSSSTAYMELRSLTSEDSAVYYCARWDSDYWYFDVWATGTTVTVSS
VL: B2 VL with A34D, L50S, L96Y, A100G, L106I
B15: C111 (antibody, human IgG1, kappa, V domains shown)
VH: QVQLQQSGPELARPGASVKLSCKASGYTLTSHGISWVKQRTGQGLEWIGEIYPGSESPYYSEKFKGKATLTADKSSNIAYMQLSSLTSEDSAVYFCARSDYSDYWAMDYWGQGTSVTVSS
VL: B2 VL with F10C, T31S, A46T, S76T, L96W, A100G, K103E, L106I
B16: C113 (antibody, human IgG1, kappa, V domains shown)
VH: EVQLQQSGPELVKPGSSVKISCKASGYTFTDYNLDWMKQSHGSSLEWIGAMSPNNGATSYNQKFKGKATLTVDKSSSTAYMELRSLTSEDSAVYYCARWDSNSWYFDVWGTGTTVTVSS
VL: B2 VL with N28I, A34D, P40S, L50S, N53T, S76D, D85E, L96Y, A100G, L106I
B17: C114 (antibody, human IgG1, kappa, V domains shown)
VH: QVQLQQSGAELVRPGTSVKMSCKAAGYTFTNSWINWVKQRPGHGLEWIGDIYPGNTFPNYNEKFKGKATLTADTSSSTAYMQLSSLTSEDSAVYYCTGGYFDVWGTGTTVTVSS
VL: DIVMTQSPSSLSVSAGEKVTMSCKSSQSLLNSGNQKNFLAWYQQKPGQPPKLLIFGASTRQSGVPDRFTGSGSGTDFTLTISSVQAEDLAVYYCQNDHSYPYTFGGGTKLEMKR
B18: C115 (antibody, human IgG1, kappa, V domains shown)
VH: EVQLQQSGAELVKPGASVKLSCTASGFNIEDTYIHWVKRRPEQGLEWIGGIDPAIGNTLYASKFQDMATITADTSSSTAYMQLSSLTSGDTAVYYCARERVYSNTLYYAMDYWGQGTSVTVSS
VL: DIVLTQSPASLVVSLGQRATISCRASKSVSISGYSYMHWYQQKPGQPPKLLIYLASNLESGVPARFSGSGSGTDFTLNIHPVEAEDAATYYCQHSRELPPTFGGGTNLEIKR
B19: C61 (antibody, human IgG1, kappa, V domains shown)
VH: DVQLQESGPGLVKPSQSLSLTCSVTGYSITSNYYWNWIRQFPGNNLEWMGYISSDGTNNYNPSLRNRISITRDTSKNQFFLKLNSVTTEDTATYYCARGLRYGPWGQGTTLTVSS
VL: QLILTQSSSASFSLGASAKLTCTLSSQHSTYTIEWYQQQPLKAPKYVMEVKNDGSHRTGDGIPDRFSGSSSGADRYLSISNIQPEDEAIYICGVGDINNYIFGGGTKVTVLR
B20: C129 (antibody, human IgG1, kappa, V domains shown)
VH: QVQLQQSGAELMTPGSSVKLSCKATGYTFTDYWIEWVKKRPGHGLEWIGEILPGYISTNYNEKFKDKATFTADTSSNTTYMQLSSLTSEDSAVYYCVLIVTTYYYFMDYWGQGTSVTVSS
VL: QIVLTQSPAIMSASPGEKVTITCSASSSVTYMHWFQQKPGTSPKLWIYSTSNLASGVPVRFSGSGSGTSYSLTISRMEAEDAATYYCQQRSSYPWTFGGGTKLEIKR
B21: C33 (antibody, human IgG1, kappa, V domains shown)
VH: QVQLQQSGPELVKPGASVKISCKASGYTFTDYYINWVKQRPGQGLEWIGWIFPGSGSTYYNEKFKGKATPTVDKYSSTAYMLLSSLTSEDSAVYFCAREDYFDRGDCWGQGTSVTVSS
VL: QIVLTQSPAIMSASPGEKVTMTCSASSSINYMHWYQQKPGTSPKRWIYDTSKLASGVPARFSGSGSGTSYSLTISSMEAEDAATYYCHQRSSYPFTFGSGTKLEIKR

target: monkey antigen protein (monkey CD112R, Uniprot ID: A0A2K5WVV8) (monkey); experiment: ELISA, monkey antigen protein

binding, binds:
B1, B2, B3, B4, B5, B6, B7, B8, B9, B10, B11, B12, B13, B14, B15, B16, B17, B18

target: human CD112R antigen protein huCD112R-His (Acro Biosysterm, PVG-H52H4) (human) (UniProt Q6DKI7); experiment: ELISA, huCD112R-His coated on plate

binding, binds:
B1, B2, B3, B4, B19, B5, B6, B7, B8, B9, B10, B11, B12, B13, B14, B15, B16, B17, B18, B20, B21
